Assay results taken from the supplement of paper PMC10849652.
Some of the results follow.

Protein sequences, listed by entry. Tags and fused reporters are not part of them. Lines headed by an entry give the natural chain unless they say otherwise; changes in a name come on top.
UniProt Q9UN36: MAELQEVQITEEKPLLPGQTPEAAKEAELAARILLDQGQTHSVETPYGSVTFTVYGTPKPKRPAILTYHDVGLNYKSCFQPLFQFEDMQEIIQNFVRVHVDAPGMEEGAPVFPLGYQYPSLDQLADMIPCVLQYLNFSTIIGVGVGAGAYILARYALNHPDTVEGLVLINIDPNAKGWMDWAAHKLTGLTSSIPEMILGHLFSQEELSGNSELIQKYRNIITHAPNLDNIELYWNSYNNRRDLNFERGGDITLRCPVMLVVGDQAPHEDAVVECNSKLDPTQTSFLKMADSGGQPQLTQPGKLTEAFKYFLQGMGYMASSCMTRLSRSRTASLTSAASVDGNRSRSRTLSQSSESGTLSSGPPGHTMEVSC
UniProt Q00653: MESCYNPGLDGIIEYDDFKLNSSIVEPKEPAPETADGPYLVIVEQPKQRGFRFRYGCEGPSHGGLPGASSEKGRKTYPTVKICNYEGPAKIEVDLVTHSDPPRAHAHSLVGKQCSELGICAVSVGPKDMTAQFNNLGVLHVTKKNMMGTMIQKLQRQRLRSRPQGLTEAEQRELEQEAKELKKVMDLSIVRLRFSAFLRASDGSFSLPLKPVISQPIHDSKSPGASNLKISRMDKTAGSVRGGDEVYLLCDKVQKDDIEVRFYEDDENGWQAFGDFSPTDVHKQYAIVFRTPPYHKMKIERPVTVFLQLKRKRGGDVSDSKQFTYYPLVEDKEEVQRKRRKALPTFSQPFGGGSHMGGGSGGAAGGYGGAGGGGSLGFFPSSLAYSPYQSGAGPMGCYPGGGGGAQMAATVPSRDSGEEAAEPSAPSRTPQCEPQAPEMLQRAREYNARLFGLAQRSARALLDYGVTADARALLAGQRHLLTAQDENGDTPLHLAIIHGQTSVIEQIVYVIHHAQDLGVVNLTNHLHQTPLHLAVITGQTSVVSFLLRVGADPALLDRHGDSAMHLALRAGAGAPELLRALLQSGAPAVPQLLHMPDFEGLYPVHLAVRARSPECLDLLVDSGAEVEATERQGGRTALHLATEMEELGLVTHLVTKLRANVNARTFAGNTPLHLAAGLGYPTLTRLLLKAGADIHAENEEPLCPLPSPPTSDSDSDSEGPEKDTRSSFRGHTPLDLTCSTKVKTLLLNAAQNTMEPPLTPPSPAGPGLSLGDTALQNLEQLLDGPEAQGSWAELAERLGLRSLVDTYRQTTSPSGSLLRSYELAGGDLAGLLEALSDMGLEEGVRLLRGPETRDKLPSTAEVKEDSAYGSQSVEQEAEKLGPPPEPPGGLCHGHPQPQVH
UniProt Q15843, whole entry, looked up: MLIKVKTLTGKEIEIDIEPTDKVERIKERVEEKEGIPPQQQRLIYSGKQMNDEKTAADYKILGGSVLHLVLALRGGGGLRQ
UniProt Q92692, whole entry, looked up: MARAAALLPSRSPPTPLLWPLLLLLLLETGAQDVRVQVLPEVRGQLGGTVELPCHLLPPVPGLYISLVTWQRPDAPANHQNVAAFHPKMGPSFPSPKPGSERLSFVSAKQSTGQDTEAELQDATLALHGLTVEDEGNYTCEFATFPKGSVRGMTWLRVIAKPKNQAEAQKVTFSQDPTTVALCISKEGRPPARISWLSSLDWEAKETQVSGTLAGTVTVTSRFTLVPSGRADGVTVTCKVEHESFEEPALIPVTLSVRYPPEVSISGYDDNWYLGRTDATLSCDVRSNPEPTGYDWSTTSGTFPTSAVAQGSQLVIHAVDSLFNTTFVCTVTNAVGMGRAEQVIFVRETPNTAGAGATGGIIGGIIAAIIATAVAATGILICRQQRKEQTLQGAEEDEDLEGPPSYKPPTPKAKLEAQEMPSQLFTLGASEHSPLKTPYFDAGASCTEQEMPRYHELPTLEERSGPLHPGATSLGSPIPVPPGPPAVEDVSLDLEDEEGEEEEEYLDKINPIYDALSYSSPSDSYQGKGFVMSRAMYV
UniProt Q9H3P2, whole entry, looked up: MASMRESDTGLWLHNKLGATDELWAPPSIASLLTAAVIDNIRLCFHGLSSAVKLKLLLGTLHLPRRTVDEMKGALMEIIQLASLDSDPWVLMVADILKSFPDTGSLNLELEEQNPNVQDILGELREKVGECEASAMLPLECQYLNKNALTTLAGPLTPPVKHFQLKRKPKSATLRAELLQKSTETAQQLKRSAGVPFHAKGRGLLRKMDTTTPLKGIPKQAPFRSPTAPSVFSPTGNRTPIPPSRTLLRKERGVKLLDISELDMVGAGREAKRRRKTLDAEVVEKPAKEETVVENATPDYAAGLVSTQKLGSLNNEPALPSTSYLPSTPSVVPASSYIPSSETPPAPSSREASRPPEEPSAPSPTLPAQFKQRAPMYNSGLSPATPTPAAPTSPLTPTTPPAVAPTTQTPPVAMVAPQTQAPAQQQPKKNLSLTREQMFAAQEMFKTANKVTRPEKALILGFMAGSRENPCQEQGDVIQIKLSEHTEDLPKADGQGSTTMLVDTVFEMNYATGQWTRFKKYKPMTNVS
UniProt P21359: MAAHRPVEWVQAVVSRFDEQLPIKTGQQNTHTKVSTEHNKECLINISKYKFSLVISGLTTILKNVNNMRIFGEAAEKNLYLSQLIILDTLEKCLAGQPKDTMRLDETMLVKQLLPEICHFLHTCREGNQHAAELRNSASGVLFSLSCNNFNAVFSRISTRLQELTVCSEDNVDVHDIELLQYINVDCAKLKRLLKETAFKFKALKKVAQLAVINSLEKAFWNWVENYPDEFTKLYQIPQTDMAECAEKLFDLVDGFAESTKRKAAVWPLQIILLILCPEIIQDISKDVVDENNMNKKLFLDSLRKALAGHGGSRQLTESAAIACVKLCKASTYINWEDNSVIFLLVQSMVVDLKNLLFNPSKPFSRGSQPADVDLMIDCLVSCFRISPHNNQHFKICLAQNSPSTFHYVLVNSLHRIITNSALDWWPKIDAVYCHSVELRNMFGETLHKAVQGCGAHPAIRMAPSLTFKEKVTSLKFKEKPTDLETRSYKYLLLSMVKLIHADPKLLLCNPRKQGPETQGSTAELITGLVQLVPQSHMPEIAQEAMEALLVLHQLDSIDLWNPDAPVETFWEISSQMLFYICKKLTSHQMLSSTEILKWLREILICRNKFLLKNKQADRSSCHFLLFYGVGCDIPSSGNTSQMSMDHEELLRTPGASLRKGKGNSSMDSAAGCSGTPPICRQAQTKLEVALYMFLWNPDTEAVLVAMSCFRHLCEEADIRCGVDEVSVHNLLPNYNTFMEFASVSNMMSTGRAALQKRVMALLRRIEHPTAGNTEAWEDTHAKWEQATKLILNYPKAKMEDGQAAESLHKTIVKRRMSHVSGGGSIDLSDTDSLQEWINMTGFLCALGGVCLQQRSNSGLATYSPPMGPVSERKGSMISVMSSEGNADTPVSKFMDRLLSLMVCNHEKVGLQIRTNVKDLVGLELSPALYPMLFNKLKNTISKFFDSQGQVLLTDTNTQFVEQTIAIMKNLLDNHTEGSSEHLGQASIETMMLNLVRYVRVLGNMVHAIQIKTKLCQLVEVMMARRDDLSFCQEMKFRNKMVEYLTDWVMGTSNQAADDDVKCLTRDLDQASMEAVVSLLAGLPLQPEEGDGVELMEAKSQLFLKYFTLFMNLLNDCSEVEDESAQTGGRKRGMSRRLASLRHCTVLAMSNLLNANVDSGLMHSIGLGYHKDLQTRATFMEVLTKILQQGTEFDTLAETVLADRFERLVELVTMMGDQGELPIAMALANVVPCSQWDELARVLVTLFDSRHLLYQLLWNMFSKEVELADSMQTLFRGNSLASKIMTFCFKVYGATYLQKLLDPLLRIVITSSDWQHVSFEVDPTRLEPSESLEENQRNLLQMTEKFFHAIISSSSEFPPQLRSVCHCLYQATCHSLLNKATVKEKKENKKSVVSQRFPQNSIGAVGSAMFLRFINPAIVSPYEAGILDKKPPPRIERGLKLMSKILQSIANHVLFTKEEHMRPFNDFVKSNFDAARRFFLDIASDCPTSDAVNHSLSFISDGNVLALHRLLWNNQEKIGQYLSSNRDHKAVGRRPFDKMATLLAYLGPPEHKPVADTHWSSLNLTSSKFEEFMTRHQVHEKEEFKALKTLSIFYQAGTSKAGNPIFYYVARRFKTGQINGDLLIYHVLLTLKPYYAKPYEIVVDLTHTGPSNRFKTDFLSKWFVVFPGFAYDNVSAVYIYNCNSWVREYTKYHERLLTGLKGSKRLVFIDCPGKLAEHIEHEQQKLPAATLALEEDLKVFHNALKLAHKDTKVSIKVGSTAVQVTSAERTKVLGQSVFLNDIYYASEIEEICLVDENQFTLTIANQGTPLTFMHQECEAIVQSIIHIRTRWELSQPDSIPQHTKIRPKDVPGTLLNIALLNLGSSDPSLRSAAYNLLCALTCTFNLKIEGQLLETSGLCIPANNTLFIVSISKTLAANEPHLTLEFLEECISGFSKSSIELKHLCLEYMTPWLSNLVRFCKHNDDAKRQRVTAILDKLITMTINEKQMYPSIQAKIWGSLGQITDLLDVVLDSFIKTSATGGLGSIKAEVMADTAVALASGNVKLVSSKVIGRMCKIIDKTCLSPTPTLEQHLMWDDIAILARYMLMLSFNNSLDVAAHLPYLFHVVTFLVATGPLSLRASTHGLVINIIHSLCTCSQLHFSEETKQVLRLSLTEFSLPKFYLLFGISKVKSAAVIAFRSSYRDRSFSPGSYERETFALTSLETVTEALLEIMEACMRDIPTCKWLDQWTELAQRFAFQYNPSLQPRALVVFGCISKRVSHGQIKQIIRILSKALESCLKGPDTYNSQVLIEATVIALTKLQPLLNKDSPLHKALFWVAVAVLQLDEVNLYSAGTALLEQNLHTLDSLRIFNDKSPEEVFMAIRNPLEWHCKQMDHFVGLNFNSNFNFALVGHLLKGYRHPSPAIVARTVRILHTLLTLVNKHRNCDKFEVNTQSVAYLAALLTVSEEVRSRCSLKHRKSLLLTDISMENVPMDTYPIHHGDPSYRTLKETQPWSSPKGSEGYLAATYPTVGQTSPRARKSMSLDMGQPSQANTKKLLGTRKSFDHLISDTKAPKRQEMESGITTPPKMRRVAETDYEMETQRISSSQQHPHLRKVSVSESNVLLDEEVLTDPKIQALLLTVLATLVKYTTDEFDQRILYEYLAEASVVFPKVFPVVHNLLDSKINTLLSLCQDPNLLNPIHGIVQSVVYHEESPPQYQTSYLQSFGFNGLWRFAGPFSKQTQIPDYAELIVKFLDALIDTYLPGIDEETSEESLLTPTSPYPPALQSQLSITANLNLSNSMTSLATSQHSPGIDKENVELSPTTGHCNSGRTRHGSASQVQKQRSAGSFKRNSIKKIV
UniProt P19838: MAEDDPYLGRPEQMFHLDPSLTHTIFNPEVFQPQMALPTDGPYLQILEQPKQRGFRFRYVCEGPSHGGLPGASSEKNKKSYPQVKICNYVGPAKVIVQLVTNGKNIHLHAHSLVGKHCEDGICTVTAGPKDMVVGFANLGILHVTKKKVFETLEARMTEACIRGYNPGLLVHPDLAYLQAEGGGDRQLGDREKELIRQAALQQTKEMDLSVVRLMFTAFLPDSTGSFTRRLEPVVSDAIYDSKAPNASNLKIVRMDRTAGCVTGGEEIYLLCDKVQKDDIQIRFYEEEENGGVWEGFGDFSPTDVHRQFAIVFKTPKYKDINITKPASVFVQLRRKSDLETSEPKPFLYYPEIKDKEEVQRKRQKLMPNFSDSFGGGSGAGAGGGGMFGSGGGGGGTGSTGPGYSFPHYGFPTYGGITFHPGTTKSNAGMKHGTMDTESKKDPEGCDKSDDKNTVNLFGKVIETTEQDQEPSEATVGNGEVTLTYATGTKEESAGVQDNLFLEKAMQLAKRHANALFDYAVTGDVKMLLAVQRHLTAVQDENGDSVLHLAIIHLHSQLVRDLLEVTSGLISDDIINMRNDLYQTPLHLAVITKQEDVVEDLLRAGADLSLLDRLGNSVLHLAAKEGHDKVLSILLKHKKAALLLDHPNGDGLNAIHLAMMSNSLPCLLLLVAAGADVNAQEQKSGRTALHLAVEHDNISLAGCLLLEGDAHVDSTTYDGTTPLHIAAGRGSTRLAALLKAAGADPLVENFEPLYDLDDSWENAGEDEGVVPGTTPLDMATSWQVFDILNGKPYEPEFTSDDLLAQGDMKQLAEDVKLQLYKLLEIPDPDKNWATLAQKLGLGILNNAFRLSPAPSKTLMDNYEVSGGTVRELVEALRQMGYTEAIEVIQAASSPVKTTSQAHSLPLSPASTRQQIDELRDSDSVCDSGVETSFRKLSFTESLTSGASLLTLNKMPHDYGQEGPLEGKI
UniProt P56181: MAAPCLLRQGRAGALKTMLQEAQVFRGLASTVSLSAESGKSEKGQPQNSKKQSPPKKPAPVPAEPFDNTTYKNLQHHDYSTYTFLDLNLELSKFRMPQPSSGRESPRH
UniProt Q9UI09, whole entry, looked up: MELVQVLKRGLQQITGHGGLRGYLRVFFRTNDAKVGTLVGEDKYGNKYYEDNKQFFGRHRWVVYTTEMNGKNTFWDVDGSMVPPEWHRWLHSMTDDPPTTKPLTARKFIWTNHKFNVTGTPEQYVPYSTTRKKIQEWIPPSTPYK

How the values were obtained:
Assay in all cases: log2 fold change, soluble protein after heating vs DMSO (PISA); higher = thermal stabilisation; K562 lysate, 10 uM; active = over 0.2 and 3.5 SD of the protein, either way, in both replicates (recomputed)
vemurafenib = compound: CCCS(=O)(=O)Nc1ccc(F)c(C(=O)c2c[nH]c3ncc(-c4ccc(Cl)cc4)cc23)c1F [vemurafenib]
Method in brief: (§1)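 Log-two fold change in thermal stability relative to solvent controls is reported from duplicates. For each sample, crude K562 extract from dounce-homogenised pellets in PBS pH 7.4 with 1 mM MgCl2, at 1 mg/mL protein, was treated with 10 μM compound for 30 min. Aliquots heated for 3 min across 48°C-58°C were pooled, brought to 0.5% NP-40 at 4°C and cleared at 21,000xg for 90 min. The supernatant was quantified by TMTpro 16plex LC-MS/MS with channel sums equalised.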

[1] = compound: CCCS(=O)(=O)Nc1ccc(F)c(C(=O)c2c[nH]c3ncc(Cl)cc23)c1F
Method in brief: as §1

barasertib = compound: CCN(CCCOc1ccc2c(Nc3cc(CC(=O)Nc4cccc(F)c4)[nH]n3)ncnc2c1)CCOP(=O)(O)O [barasertib]
Method in brief: as §1

[2] = compound: CC[C@@H]1C(=O)N(C)c2cnc(Nc3ccc(C(=O)NC4CCN(C)CC4)cc3OC)nc2N1C1CCCC1
Method in brief: as §1

volasertib = compound: CC[C@@H]1C(=O)N(C)c2cnc(Nc3ccc(C(=O)N[C@H]4CC[C@H](N5CCN(CC6CC6)CC5)CC4)cc3OC)nc2N1C(C)C [volasertib]
Method in brief: as §1

[3] = compound: CCn1c(C(=O)N(C2CC2)C2CC2)cc2c3c(ncn3C)c(Nc3cc(C)n(C)n3)nc21
Method in brief: as §1

[4] = compound: CCn1cc(-c2ccnc3[nH]c(-c4cccc(CN(C)C)c4)cc23)c(-c2ccc(NC(=O)N(C)C)cc2)n1
Method in brief: as §1

[5] = compound: CN1CCC(CNc2ccc3ncc(-c4cccc(OC(F)(F)F)c4)n3n2)CC1
Method in brief: as §1

saracatinib = compound: CN1CCN(CCOc2cc(OC3CCOCC3)c3c(Nc4c(Cl)ccc5c4OCO5)ncnc3c2)CC1 [saracatinib]
Method in brief: as §1

sotrastaurin = compound: CN1CCN(c2nc(C3=C(c4c[nH]c5ccccc45)C(=O)NC3=O)c3ccccc3n2)CC1 [sotrastaurin]
Method in brief: as §1

Measured: log2 fold change

NIBAN2 (UniProt Q96TA1)
inactive: vemurafenib -0.028 | [1] -0.001 | barasertib 0.036 | [2] 0.013 | volasertib -0.01 | [3] 0.046 | [4] 0.074 | [5] 0 | saracatinib 0.001 | sotrastaurin 0.005

NEBL isoform 2 (UniProt O76041)
inactive: vemurafenib 0.014 | [1] 0.009 | barasertib -0.078 | [2] 0.02 | volasertib 0.051 | [3] -0.041 | [4] -0.108 | [5] 0.084 | saracatinib 0.023 | sotrastaurin -0.039

NIPBL (UniProt Q6KC79)
inactive: vemurafenib -0.015 | [1] 0.091 | barasertib 0.017 | [2] -0.081 | volasertib -0.048 | [3] 0.04 | [4] -0.004 | [5] -0.042 | saracatinib -0.001 | sotrastaurin 0.004

NDRG2 (UniProt Q9UN36)
inactive: vemurafenib -0.035 | [1] 0.017 | barasertib -0.012 | [2] 0.053 | volasertib 0.008 | [3] -0.015 | [4] -0.022 | [5] 0.001 | saracatinib 0.013 | sotrastaurin 0.004

NFKBIE (UniProt O00221)
inactive: vemurafenib 0.046 | [1] 0.051 | barasertib 0.174 | [2] 0.081 | volasertib -0.106 | [3] -0.024 | [4] -0.07 | [5] -0.045 | saracatinib -0.123 | sotrastaurin -0.025

NFKB2 (UniProt Q00653)
inactive: vemurafenib 0.008 | [1] -0.003 | barasertib -0.005 | [2] -0.01 | volasertib -0.029 | [3] 0.054 | [4] -0.033 | [5] -0.008 | saracatinib 0.056 | sotrastaurin -0.027

NEDD8 (UniProt Q15843)
inactive: vemurafenib 0.063 | [1] 0.019 | barasertib 0.113 | [2] -0.003 | volasertib 0.045 | [3] 0.041 | [4] 0.025 | [5] -0.107 | saracatinib 0.02 | sotrastaurin 0

NIT1 (UniProt Q86X76)
inactive: vemurafenib -0.003 | [1] -0.004 | barasertib -0.005 | [2] 0.002 | volasertib -0.005 | [3] -0.044 | [4] -0.053 | [5] 0.043 | saracatinib 0.012 | sotrastaurin -0.031

NECTIN2 (UniProt Q92692)
inactive: vemurafenib 0.029 | [1] -0.028 | barasertib 0.009 | [2] 0.001 | volasertib 0.027 | [3] 0.038 | [4] 0 | [5] 0.029 | saracatinib 0.014 | sotrastaurin 0.019

NELFA (UniProt Q9H3P2)
inactive: vemurafenib 0.015 | [1] 0.02 | barasertib -0.005 | [2] -0.016 | volasertib -0.083 | [3] 0.007 | [4] 0.037 | [5] -0.037 | saracatinib -0.013 | sotrastaurin 0.029

NEDD4L (UniProt Q96PU5)
inactive: vemurafenib 0.022 | [1] 0.019 | barasertib -0.002 | [2] -0.039 | volasertib -0.049 | [3] 0.039 | [4] -0.03 | [5] 0.023 | saracatinib -0.004 | sotrastaurin 0.026

NF1 (UniProt P21359)
inactive: vemurafenib 0.019 | [1] 0.024 | barasertib 0.029 | [2] -0.044 | volasertib -0.048 | [3] 0.031 | [4] -0.035 | [5] -0.041 | saracatinib 0.001 | sotrastaurin -0.029

NFKB1 isoform 2 (UniProt P19838)
inactive: vemurafenib -0.019 | [1] 0 | barasertib -0.001 | [2] -0.017 | volasertib -0.021 | [3] -0.013 | [4] -0.046 | [5] -0.003 | saracatinib 0.017 | sotrastaurin 0.009

NDUFV3 (UniProt P56181)
inactive: vemurafenib 0.002 | [1] -0.008 | barasertib -0.049 | [2] -0.034 | volasertib 0.132 | [3] 0.025 | [4] -0.059 | [5] 0.032 | saracatinib 0.1 | sotrastaurin 0.075

Four consecutive records already listed:
NEDD4L (UniProt Q96PU5)
inactive: vemurafenib 0.022 | [1] 0.019 | barasertib -0.002 | [2] -0.039 | volasertib -0.049 | [3] 0.039 | [4] -0.03 | [5] 0.023 | saracatinib -0.004 | sotrastaurin 0.026

NF1 (UniProt P21359)
inactive: vemurafenib 0.019 | [1] 0.024 | barasertib 0.029 | [2] -0.044 | volasertib -0.048 | [3] 0.031 | [4] -0.035 | [5] -0.041 | saracatinib 0.001 | sotrastaurin -0.029

NFKB1 isoform 2 (UniProt P19838)
inactive: vemurafenib -0.019 | [1] 0 | barasertib -0.001 | [2] -0.017 | volasertib -0.021 | [3] -0.013 | [4] -0.046 | [5] -0.003 | saracatinib 0.017 | sotrastaurin 0.009

NDUFV3 (UniProt P56181)
inactive: vemurafenib 0.002 | [1] -0.008 | barasertib -0.049 | [2] -0.034 | volasertib 0.132 | [3] 0.025 | [4] -0.059 | [5] 0.032 | saracatinib 0.1 | sotrastaurin 0.075

(further entries)

NDUFA12 (UniProt Q9UI09)
inactive: vemurafenib 0.049 | [1] 0.008 | barasertib 0.046 | [2] 0.02 | volasertib 0.051 | [3] 0.026 | [4] 0.063 | [5] -0.129 | saracatinib -0.017 | sotrastaurin 0.088
